We go through 38 molecules from PubChem BioAssay AID2685 (National Center for Advancing Translational Sciences (NCATS), 2010).

The test in a line: qHTS Assay for Lipid Storage Modulators in Drosophila S3 Cells.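 On cell number change: cells counted by Cell Tracker Red CMTPX staining in the red channel.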 The conditions noted are these: BODIPY lipid droplet fluorescence, 18-24 h; for cell number change: measured here: cell count max response, cells fed with added oleic acid. The essentials:
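Drosophila S3 cells loaded with oleic acid (400 uM, as added) and compounds at several concentrations; lipid droplets imaged by 488-nm laser-scanning cytometry, 500–530 nm intensity and object ratio to cell channel. Percent activity normalized to 20 uM Triacsin C.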
For orientation: qHTS replaces the single test concentration by a dilution series.

The mark [1] stands for this setting: measured here: cell number channel AC50, cells fed with added oleic acid.
Where [2] appears, read: measured here: lipid fluorescence (Fed channel) AC50, cells fed with added oleic acid.

This is one part of the list. Shown are side measurements of this screen, not its main read-out; they come without a call. The list favours compounds with an active or inconclusive main result. Words in brackets tell the shape of the fitted curve; partial curves, single points and poor fits give uncertain potencies.

A word on the AC50: it is the concentration at which the activity in the assay is half-maximal. Lower therefore signals activity at low concentration. With `O=C(NCc1ccncc1)c1cc(-c2ccc(Cl)cc2)oc1C(F)(F)F`, the cell number change was 36.7%. Further, the AC50 under setting [1] was 5.17 µM [rising, full curve, poor fit]. Besides, under setting [2], the AC50 was 4.11 µM [rising, full curve].

`CCOC(=O)N1CCC(NC(=O)c2ccc3c(c2)N(Cc2ccccc2)CCS3)CC1`: the cell number change was -22.7%. In addition, the AC50 under setting [2] is 9.2 µM [falling, partial curve].

Take `N#CC1=C(N)N(c2ccccc2)C2=C(C(=O)CCC2)C1c1cccs1` (stereo not drawn): the AC50 under setting [1] was 0.517 µM [rising, full curve].

For the molecule `COc1ccc(CC(=O)N[C@@H](CCSC)C(=O)N2CCC3(CC2)NCCc2[nH]cnc23)cc1`, the cell number change was found to be 12.9%.

With `COc1cccc(-c2nc(CS(=O)(=O)CC(=O)NCCN3CCOCC3)c(C)o2)c1`, the cell number change is 8.78%. The AC50 under setting [1] was 2.06 µM [rising, single point].

In the case of `Cc1cccc(C)c1OCc1nnc(SCC(=O)NCc2ccccc2)o1`, the cell number change was 15.7%.

As to `COc1ccc(NC(=O)C(C)N=C2NS(=O)(=O)c3ccccc32)cc1S(N)(=O)=O` (stereo not drawn), the cell number change is -58.5%. The AC50 under setting [1] is 20.6 µM [falling, partial curve, poor fit]. Further, under setting [2], the AC50 is 16.4 µM [falling, partial curve, poor fit].

`O=C(O)C1CC=CCC1C(=O)Nc1ccc(S(=O)(=O)N2CCCc3ccccc32)cc1` (stereo not drawn): the AC50 under setting [2] was 25.9 µM [falling, partial curve, poor fit].

With `COC(=O)Cc1c(O)ccn(C2CC2)c1=O`, the AC50 under setting [2] is 25.9 µM [rising, single point].

For the molecule `Cc1cccc(NC(=S)NCc2cccs2)c1C`, the cell number change turned out to be 0.919%.

Turning to `COC(=O)c1ccc(NC(=O)NCCCl)cc1`, the cell number change worked out at 7.81%.

As to `Fc1cccc(Cn2ccc(-c3ccc4c(c3)OCO4)n2)c1`, the cell number change came to 51.4%. Moreover, the AC50 under setting [1] is 6.51 µM [rising, single point]. Also, under setting [2], the concentration at half-maximal activity (AC50) was 7.31 µM [rising, partial curve].

Consider `CC1CCc2c(sc(NC(=O)C3=COCCO3)c2C(N)=O)C1` (stereo not drawn), for which the cell number change was -12.6%. Besides, under setting [2], the AC50 is 0.13 µM [rising, full curve, poor fit].

In the case of `COc1ccccc1CNC(=O)C1CCC(CNc2c(N3CCOCC3)c(=O)c2=O)CC1` (stereo not drawn), the cell number change is -38.8%. The AC50 under setting [2] was 32.6 µM [falling, single point].

With `Cn1nc([N+](=O)[O-])nc1Oc1ccccc1`, the cell number change is -2.36%. For the same molecule, the AC50 under setting [2] is 6.51 µM [falling, single point].

Turning to `COc1ccc(C(=O)Nc2nc(N)n(-c3ccccc3)n2)cc1OC`, the cell number change is 24.6%. Further, under setting [1], the AC50 is 2.59 µM [rising, full curve, poor fit].

Regarding `CCCCn1c(N)c(N(CC(C)C)C(=O)c2ccc(S(=O)(=O)N3CCCCCC3)cc2)c(=O)[nH]c1=O`, the cell number change turned out to be 12.9%.

Consider `COc1cc(NS(=O)(=O)c2ccc(N/C=C(\C#N)c3nc4ccccc4o3)cc2)nc(OC)n1`, for which the cell number change is -0.2%.

For the molecule `O=C(CSc1nnnn1C1CCCCC1)N1CCOCC1`, the cell number change amounted to 13.9%.

`COC(=O)[C@@]12OC[C@]34[C@H]([C@@H](O)[C@@H]1O)[C@@]1(C)C(=O)C(O[C@@H]5OC(CO)[C@@H](O)[C@@H](O)[C@@H]5O)=C[C@@H](C)[C@@H]1C[C@H]3OC(=O)[C@H](OC(=O)/C=C(\C)C(C)(C)OC(C)=O)[C@@H]24` (stereo partly drawn): the cell number change is -12.2%. Also, the AC50 under setting [2] was 3.66 µM [falling, full curve, poor fit].

Turning to `Cc1nnc(NCCc2ccccc2)[nH]c1=O`, the cell number change is 6.77%.

In the case of `O=C(Cn1cnc2c(nnn2Cc2ccccc2)c1=O)c1ccccc1`, the cell number change came to 14.1%. The AC50 under setting [2] is 0.184 µM [rising, full curve, poor fit].

As for `CCCCCc1cc(=O)oc2c(C(CCN(CC)CC)c3ccc(N(C)C)cc3)c(OC)cc(OC)c12` (stereo not drawn), the cell number change was -35.1%. Further, under setting [1], the AC50 was 6.51 µM [falling, partial curve, poor fit]. Besides, the half-maximal activity concentration (AC50) under setting [2] was 16.4 µM [falling, partial curve].

As for `CC1CCC2(CC1)NC(=O)N(CC(=O)NCCc1ccc(F)cc1)C2=O` (stereo not drawn), the cell number change was -2%. The AC50 under setting [2] was 0.411 µM [rising, full curve, poor fit].

Turning to `Cc1oc(-c2ccccc2F)nc1CS(=O)(=O)CC(=O)N1CCc2ccccc21`, the cell number change was determined as 36.6%. Besides, the AC50 under setting [1] is 3.66 µM [rising, full curve]. Moreover, under setting [2], the AC50 was 5.8 µM [rising, full curve].

`FC(F)(F)c1ccc(C2NCCc3sccc32)cc1` (stereo not drawn): the cell number change is -51.5%. For the same molecule, the AC50 under setting [1] was 29.1 µM [falling, single point]. Besides, under setting [2], the AC50 was 29.1 µM [falling, single point].

Consider `COc1ccc(-c2n[nH]c(=S)n2-c2ccc3c(c2)OCCO3)cc1`, for which the cell number change is -33.3%. For the same molecule, the AC50 under setting [1] was 0.00461 µM [falling, full curve, poor fit].

As to `CCCNC(=O)CCn1cc(-c2ccc(OC)cc2)nc1-c1ccncc1`, the cell number change came out at 7.19%. Moreover, the AC50 under setting [2] is 1.03 µM [rising, partial curve, poor fit].

Regarding `COc1ccc(C)cc1NC(=O)c1cc2c(s1)CCC2`, the cell number change is 10.4%.

Turning to `CCN(CC)S(=O)(=O)c1cc(NC(=O)C(C)Nc2ccccc2N2CCOCC2)ccc1C` (stereo not drawn), the cell number change was -1.22%. Moreover, the AC50 under setting [1] is 0.0259 µM [rising, full curve, poor fit]. Further, the AC50 under setting [2] was 29.1 µM [rising, partial curve, poor fit].

Turning to `O=C(c1ccccc1O)N1N=C(C(F)(F)F)CC1(O)c1ccc([N+](=O)[O-])cc1` (stereo not drawn), the cell number change is -23.9%.

As to `CN(C)Cc1ccccc1Sc1cccc2ccccc12`, the cell number change is -71.1%. For the same molecule, the AC50 under setting [1] is 0.00461 µM [falling, full curve, poor fit].

`CCN(CC)c1ccc(/C=C2/C(=O)N(c3ccc([N+](=O)[O-])cc3)N=C2N2CCOCC2)cc1`: the cell number change amounted to 0.141%.

On to `CC(Cl)C(=O)Nc1cc(C(C)(C)C)nn1-c1ccccc1` (stereo not drawn), for which the AC50 under setting [2] is 0.146 µM [rising, single point].

As for `COc1ccc(/C=N\NC(=O)CNC(=O)C2COc3ccccc3O2)cc1[N+](=O)[O-]` (stereo not drawn), the cell number change is -3.63%. The AC50 under setting [2] is 7.31 µM [falling, single point].

As to `CN(C)c1ccc(CNC(=O)c2cc(S(=O)(=O)N3CCOCC3)cn2C)cc1`, the cell number change is 8.36%. Under setting [1], the AC50 was 0.13 µM [rising, full curve, poor fit]. The AC50 under setting [2] was 29.1 µM [rising, single point].

As to `O=C(O)CCN1CCN(S(=O)(=O)c2ccc3ccccc3c2)CC1`, the cell number change was 9.94%. For the same molecule, the AC50 under setting [2] was 13 µM [rising, partial curve].

With `Cc1ccc2nc(-c3ccccc3)c(CN3CCN(c4ccccc4F)CC3)n2c1`, the cell number change is -11%.
